# Measurements taken from article PMC5695913.
# Protein sequences, listed by entry. Tags and fused reporters are not part of them.
# UniProt P11166: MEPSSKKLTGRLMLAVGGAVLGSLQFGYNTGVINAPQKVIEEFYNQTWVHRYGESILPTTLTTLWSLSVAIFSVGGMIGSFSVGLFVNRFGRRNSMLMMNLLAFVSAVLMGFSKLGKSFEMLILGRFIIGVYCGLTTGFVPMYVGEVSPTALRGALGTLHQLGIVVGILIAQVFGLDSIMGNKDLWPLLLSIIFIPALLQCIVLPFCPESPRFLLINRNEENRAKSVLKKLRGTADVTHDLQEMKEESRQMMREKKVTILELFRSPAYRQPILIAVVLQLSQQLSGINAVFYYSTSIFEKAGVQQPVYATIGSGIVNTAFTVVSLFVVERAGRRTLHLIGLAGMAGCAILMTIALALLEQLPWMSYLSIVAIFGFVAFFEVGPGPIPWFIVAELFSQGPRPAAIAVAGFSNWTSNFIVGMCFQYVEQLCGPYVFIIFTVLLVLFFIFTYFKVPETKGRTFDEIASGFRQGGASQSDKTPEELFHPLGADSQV
# These are yes or no findings as the source states them, for the method shown. In cells and extracts the contact can be indirect. Some binding calls cover weakened binding; strength is not graded here.
# Experiments:
# [1] = target: SFB-tagged SNX27 Δ65–83 mutant (UniProt Q8K4V4); test: co-IP; SNX27 wild type and mutants of Figures S5A, S5B, S6B, S6D and S7C; legends not shown; the text speaks of immunoprecipitation data using SNX27 mutants
# [2] = target: SFB-tagged SNX27 Δ57–83 mutant (UniProt Q8K4V4); test: as above
substance,measurement,setting,value
glucose transporter 1 (GLUT1) (from UniProt P11166 1-492),binding,[1],binds
same,binding,[2],binds
